Article PMC3861474, “From PII Signaling to Metabolite Sensing: A Novel 2-Oxoglutarate Sensor That Details PII - NAGK Complex Formation” (PLoS ONE, 2013)
Results are given in words; binding and its absence hold for the method and conditions named. Where a sequence is shown, tags or fusion partners need not be part of it.

How the values were obtained:
[1] = target: T1, NAGK‑FL25‑C (NAGK fused by a flexible 25-residue linker to Cerulean) (Synechococcus elongatus) (UniProt Q6V1L5); experiment: FRET or BRET; association kinetics: FRET ratio (525 nm / 475 nm emission) every 8 s, excitation 433 nm; NAGK-FL25-C preincubated at 37 °C, then PII-Venus variant added; 100 nM proteins; 0.1 mM ATP; ratio not background-subtracted (0.54 is the zero baseline); both purified
T1 sequence: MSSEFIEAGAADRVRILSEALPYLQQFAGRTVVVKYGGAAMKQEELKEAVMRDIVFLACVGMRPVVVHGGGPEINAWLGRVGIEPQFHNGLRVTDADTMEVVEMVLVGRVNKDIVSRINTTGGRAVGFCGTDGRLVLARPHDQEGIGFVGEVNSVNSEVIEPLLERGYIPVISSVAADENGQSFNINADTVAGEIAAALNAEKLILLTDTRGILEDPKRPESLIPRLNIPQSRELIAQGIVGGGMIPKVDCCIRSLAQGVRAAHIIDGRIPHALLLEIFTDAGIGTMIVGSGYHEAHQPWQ

[2] = target: T1, NAGK‑FL25‑C (NAGK fused by a flexible 25-residue linker to Cerulean) (Synechococcus elongatus); experiment: FRET or BRET; emission spectra 445-640 nm, excitation of Cerulean at 433 nm; NAGK-Cerulean fusions with equimolar PII-Venus fusions (100 nM); spectra corrected for Venus emission without FRET; 50 mM imidazole pH 7.5, 50 mM KCl, 20 mM MgCl2, 0.5 mM DTT, 0.1 mM ATP; both purified
[3] = target: T2, N-acetyl-L-glutamate kinase (NAGK), His-tagged wild type (Synechococcus elongatus) (UniProt Q6V1L5); experiment: SPR; BIAcore X; His-tagged NAGK-wt (30 nM hexamer) bound to Ni2+-loaded NTA chip to ~1500 RU; PII variants injected as analyte; control flow cell subtracted; both purified
T2 sequence: T1 sequence

binding [1]: no binding (tested: 100 nM) | binding [2]: no binding (tested: 100 nM) | binding [3]: no binding
B1: PII-S49G‑E85A‑ST‑V (PII S49G E85A double mutant, Strep-tag as linker, Venus) (protein, UniProt P0A3F4 1-112)
chain: MKKIEAIIRPFKLDEVKIALVNAGIVGMTVSEVRGFGRQKGQTERYRGGEYTVEFLQKLKLEIVVEDAQVDTVIDKIVAAARTGAIGDGKIFVSPVDQTIRIRTGEKNADAI
